In patent US11285220B2, “Materials and methods relating to linkers for use in protein drug conjugates” (Iksuda Therapeutics Limited, priority 2014, dated 2022):

How the values were obtained:
[1] = Reactivity of PL13 free acid with 10 equivalents of tyrosine, histidine, lysine and N-acetyl cysteine at pH 7.0, RP-HPLC
[2] = Reactivity of PL13 free acid with 2 molar equivalents of N-acetyl cysteine, RP-HPLC; conditions: 2 molar equivalents NAC, RT

## C=Cc1cc(C)nc(CCC(=O)O)c1 [PL13 free acid]
[1]; 10 molar excess of amino acid, pH 7.0, 4 hours, RT
  conversion of PL13 free acid to PL13-NAC adduct: 90%
[1]; 10 molar excess of amino acid, pH 7.0, RT
  time until conversion to PL13-NAC adduct is fully complete: < 18 h
[1]; pH 7.0, 10 equivalents of each amino acid
  selectivity of reaction in the presence of Tyr, His and Lys: reacted selectively with NAC
[2]; 24 hours
  reactivity with NAC at pH 7.5 compared with pH 7.0 and 8.0: slower
[2]; pH 8.0, 72 hours
  PL13 free acid converted to product (PL13-NAC adduct): ~70%
